This experiment addresses T1, recombinant pH-regulated antigen 1 (Pra1) of C. albicans (Candida albicans) (UniProt P87020).
T1 sequence (looked up): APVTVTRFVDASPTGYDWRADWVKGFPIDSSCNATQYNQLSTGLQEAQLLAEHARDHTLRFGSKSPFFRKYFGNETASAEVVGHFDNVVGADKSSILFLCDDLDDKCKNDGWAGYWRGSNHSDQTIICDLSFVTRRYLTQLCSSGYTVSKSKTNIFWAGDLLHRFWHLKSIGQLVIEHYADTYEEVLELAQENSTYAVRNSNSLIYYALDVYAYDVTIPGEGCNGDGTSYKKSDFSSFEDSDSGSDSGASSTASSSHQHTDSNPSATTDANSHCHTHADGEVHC
Kind of experiment: Western blot on recombinant protein.

No constants are given. Whether binding was seen depends on the method and setting. Some entries that bind do so weakly or less than the wild type.

B1: monoclonal antibody 8C3 directed against Pra1 of Candida albicans, produced by the hybridoma cell line DSM ACC 3369 (antibody, mouse IgG1, kappa, V domains shown)
VH: EVQLVESGGDLVKPGGSLKLSCAASGFTFSTYGMSWVRQTPDKRLEWVATISSGGSYTYYPDSVKGRFTISRDNVKNTLYLQMSSLKSEDTAMYYCARQGLDDNYAEWYFDVWGAGTTVTVSS
VL: DILLTQSPATLSVTPGETVSLSCRASQSIYKNLHWYQQKSHRSPRLLIKYASDSISGIPSRFTGSGSGTDYTLSINSVKPEDEGKYYCLQGFSTPWTFGGGTKLEIKR
Turning to B1, the binding entry is recorded as “binds”.

(Values after patent US20240352099A1.)
